US11130803B2, “Isoform-selective TGFβ1 inhibitors and use thereof” (Scholar Rock, Inc., priority 2018, dated 2021)
Changes are numbered by the printed parent chain. Some entries share one result that the patent states for a list of compounds.

Sequences of proteins named here, by UniProt entry; tags and fusion partners are left off. Residues count along the entry.
UniProt P01137, 30-390: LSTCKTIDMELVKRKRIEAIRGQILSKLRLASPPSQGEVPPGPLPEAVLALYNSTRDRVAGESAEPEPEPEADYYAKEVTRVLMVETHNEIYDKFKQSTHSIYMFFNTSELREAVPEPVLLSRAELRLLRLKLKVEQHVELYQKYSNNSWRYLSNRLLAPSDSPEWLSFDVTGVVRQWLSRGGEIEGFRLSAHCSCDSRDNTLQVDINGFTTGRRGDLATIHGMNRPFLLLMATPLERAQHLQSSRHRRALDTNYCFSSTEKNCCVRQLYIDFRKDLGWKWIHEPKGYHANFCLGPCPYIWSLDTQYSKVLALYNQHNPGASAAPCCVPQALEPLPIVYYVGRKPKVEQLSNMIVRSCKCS

B1: Ab20: monoclonal antibody; VH SEQ ID NO: 251, VL SEQ ID NO: 241 (antibody, V domains shown)
VH: EVQLLESGGGLVQPGGSLRLSCAASGFTFSAYAMTWVRQAPGKGLEWVSAISGSGGVTYYADSVKGRFTISRDNSKNTLYLQMNSLRAEDTAVYYCARVSSGHWDYDYWGQGTLVTVSS
VL: DIQLTQSPSSLSASVGDRVTITCRASQSISSYLNWYQQKPGKAPKLLIYAASNLQSGVPSRFSGSGSGTDFTLTISSLQPEDFATYYCQQTYTVPLTFGGGTKVEIK
B2: Ab29: monoclonal antibody; VH SEQ ID NO: 137, VL SEQ ID NO: 15 (antibody, V domains shown)
VH: EVQLVESGGGLVQPGRSLRLSCAASGFTFSSFAMNWVRQAPGKGLEWVSYISPDASTIYYAGSVKGRFTISRDNAKNSLYLQMNSLRAEDTAVYYCVRAVLDYGDMLDPWGQGTLVTVSS
VL: DIQMTQSPSSLSASVGDRVTITCQASQDITNYLNWYQQKPGKAPKLLIYDASNLETGVPSRFSGSGSGTDFTFTISSLQPEDIATYYCQQADNHPPWTFGGGTKVEIK
B3: Ab30: monoclonal antibody; VH SEQ ID NO: 138, VL SEQ ID NO: 15 (antibody, V domains shown)
VH: B2 VH with R16G, A33S, N35D, G62D, V97A, A99G, V100T
VL: B2 VL
B4: Ab31: monoclonal antibody; VH SEQ ID NO: 139, VL SEQ ID NO: 15 (antibody, V domains shown)
VH: B2 VH with R16G, A33S, N35D, G62D, S78T, V97A
VL: B2 VL
B5: Ab32: monoclonal antibody; VH SEQ ID NO: 140, VL SEQ ID NO: 15 (antibody, V domains shown)
VH: B2 VH with R16G, A33S, D54S, S56D, G62D, S78T, V97A, A99G, L101W, Y103M
VL: B2 VL
B6: Ab33: monoclonal antibody; VH SEQ ID NO: 141, VL SEQ ID NO: 15 (antibody, V domains shown)
VH: B2 VH with R16G, A33S, D54S, S56D, G62D, S78T, V97A, R98H, A99G
VL: B2 VL
B7: Ab22: monoclonal antibody; VH SEQ ID NO: 130, VL SEQ ID NO: 15 (antibody, V domains shown)
VH: B2 VH with R16G, S30G, A33S, S52H, P53S, G62D, V97A, A99G
VL: B2 VL
B8: Ab24: monoclonal antibody; VH SEQ ID NO: 132, VL SEQ ID NO: 15 (antibody, V domains shown)
VH: B2 VH with N35Y, G62D, V97A, A99G
VL: B2 VL
B9: Ab26: monoclonal antibody; VH SEQ ID NO: 134, VL SEQ ID NO: 15 (antibody, V domains shown)
VH: B2 VH with R16G, A33S, N35D, G62D, S78T, V97A, A99G
VL: B2 VL

target: T1, hLTBP3-proTGFβ1 (Homo sapiens, UniProt P01137); experiment: MSD-SET solution equilibrium titration binding; details: criterion met by exemplary antibodies
T1 construct: made in house; host or cells: Expi293F cells, transient co-transfection
From the text: (§1) Solution Equilibrium Titration (SET): The SET is an assay whereby binding between two molecules (such as an antigen and an antibody that binds the antigen) can be measured at equilibrium in a solution. For example, Meso-Scale Discovery (“MSD”)-based SET, or MSD-SET, is a useful mode of determining dissociation constants for particularly high-affinity protein-protein interactions at equilibrium, such as picomolar-affinity antibodies binding to their antigens (see, for example: Ducata et al. (2015) J Biomolecular Screening 20(10): 1256-1267). The SET-based assays are particularly useful for determining KD values of antibodies with sub-nanomolar (e.g., picomolar) affinities.
(§2) In view of this, it is contemplated that assays that measure binding affinities of such antibodies at equilibrium may more accurately represent the mode of target engagement in vivo. Thus, MSD-SET-based binding assays (or other suitable assays) may be performed, as exemplified in Table 9 below.
(§3) Solution equilibrium titration (“SET”) is an assay whereby binding between two molecules (such as an antigen and an antibody that binds the antigen) can be measured at equilibrium in a solution. For example, Meso-Scale Discovery (“MSD”)-based SET, or MSD-SET, is a useful mode of determining dissociation constants for particularly high-affinity protein-protein interactions at equilibrium (see, for example: Ducata et al. (2015) J Biomolecular Screening 20(10): 1256-1267). The SET-based assays are particularly useful for determining KD values of antibodies with sub-nanomolar (e.g., picomolar) affinities.
(§4) For solution equilibrium titration-based binding assays, protein complexes that comprise one of the presenting molecules such as those shown above may be employed as antigen (presenting molecule-TGFβ1 complex, or an LLC). Test antibodies are allowed to form antigen-antibody complex in solution. Antigen-antibody reaction mixtures are incubated to allow an equilibrium to be reached; the amount of the antigen-antibody complex present in the assay reactions can be measured by suitable means well known in the art. As compared to BLI-based assays, SET-based assays are less affected by on/off rates of the antigen-antibody complex, allowing sensitive detection of very high affinity interactions.

Molecule	Kd [nM]
B1	≤ 1
B2	≤ 1
B3	≤ 1
B4	≤ 1
B5	≤ 1
B6	≤ 1
B7	≤ 1
B8	≤ 1
B9	≤ 1

target: T2, hLTBP1-proTGFβ1 (Homo sapiens, UniProt P01137); experiment: MSD-SET solution equilibrium titration binding; details: criterion met by exemplary antibodies
T2 construct: made in house; host or cells: Expi293F cells, transient co-transfection
From the text: as §1, §2, §3, §4

Molecule	Kd [nM]
B1	≤ 1
B2	≤ 1
B3	≤ 1
B4	≤ 1
B5	≤ 1
B6	≤ 1
B7	≤ 1
B8	≤ 1
B9	≤ 1

target: T3, hLRRC33-proTGFβ1 (Homo sapiens, UniProt P01137); experiment: MSD-SET solution equilibrium titration binding; details: criterion met by exemplary antibodies
T3 construct: made in house
From the text: as §1, §2, §3, §4

Molecule	Kd [nM]
B1	> 1
B2	≤ 1
B3	≤ 1
B4	≤ 1
B5	≤ 1
B6	≤ 1
B7	≤ 1
B8	≤ 1
B9	≤ 1

target: T4, hGARP-proTGFβ1 (Homo sapiens, UniProt P01137); experiment: MSD-SET solution equilibrium titration binding; details: criterion met by exemplary antibodies
T4 construct: made in house
From the text: as §1, §2, §3, §4

Molecule	Kd [nM]
B1	> 1
B2	≤ 1
B3	≤ 1
B4	≤ 1
B5	≤ 1
B6	≤ 1
B7	≤ 1
B8	≤ 1
B9	≤ 1
